Drawing on patent US10624880B2, “Predicting response to alvocidib by mitochondrial profiling” (Tolero Pharmaceuticals, Inc., priority 2015, dated 2020), this text covers EC50 for one compound.

The test deals with MV-4-11 cells. The test is described as follows: 24 hour EC50 in MV-4-11 cells. In kind it is cell-based. Particulars: Homo sapiens, MV4-11, read-out: 24 hour EC 50. The source says:
Following the treatment, cells were harvested and prepared using standard immunoblotting techniques for detection of MCL-1.

As to `CCc1cnn2c(NCc3ccc[n+]([O-])c3)cc(N3CCCC[C@H]3CCO)nc12` [dinaciclib], the EC50 is 0.05 µM.
